Patent publication US11020449B2, “Use of the GK-1 peptide as an antitumoral and/or antimetastatic agent” (UNIVERSIDAD NACIONAL AUTÓNOMA DE MÉXICO, priority 2016, dated 2021)

Test system: 4T1 cells
Details: day 39

G-Y-Y-Y-P-S-D-P-N-T-F-Y-A-P-P-Y-S-A (GYYYPSDPNTFYAPPYSA; tapeworm) [GK-1]
slope of correlation between spleen weight and primary tumor weight: lower than 0.57
weight of the spleen with respect to tumor-free mice: increased significantly with respect to tumor-free mice
